# Measured values as given in the supplement of paper PMC10032668.
# Protein sequences, listed by entry. Tags and fused reporters are not part of them.
# KHDRBS1, Q07666, UniProt Q07666, whole entry: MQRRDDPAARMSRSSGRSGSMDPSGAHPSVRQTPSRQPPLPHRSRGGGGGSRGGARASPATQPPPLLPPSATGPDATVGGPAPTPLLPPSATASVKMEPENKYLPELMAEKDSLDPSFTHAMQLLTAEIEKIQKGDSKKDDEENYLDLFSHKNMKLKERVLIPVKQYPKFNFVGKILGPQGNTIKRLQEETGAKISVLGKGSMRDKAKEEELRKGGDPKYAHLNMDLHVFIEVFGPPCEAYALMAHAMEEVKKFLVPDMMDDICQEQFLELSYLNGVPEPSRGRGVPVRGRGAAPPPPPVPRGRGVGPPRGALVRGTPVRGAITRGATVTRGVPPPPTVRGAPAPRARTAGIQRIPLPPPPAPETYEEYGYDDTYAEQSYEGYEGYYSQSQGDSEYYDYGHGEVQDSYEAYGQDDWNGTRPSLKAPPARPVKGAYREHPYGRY
# MORF4L2, Q15014, UniProt Q15014, whole entry: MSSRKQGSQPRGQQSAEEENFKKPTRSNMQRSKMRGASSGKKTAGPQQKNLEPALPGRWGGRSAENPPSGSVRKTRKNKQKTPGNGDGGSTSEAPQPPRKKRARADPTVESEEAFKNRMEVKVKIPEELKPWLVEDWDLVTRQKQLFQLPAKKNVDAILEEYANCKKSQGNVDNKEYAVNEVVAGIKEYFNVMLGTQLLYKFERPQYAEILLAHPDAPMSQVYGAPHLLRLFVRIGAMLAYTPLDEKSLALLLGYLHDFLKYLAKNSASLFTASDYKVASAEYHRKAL
# NDUFS5, O43920, UniProt O43920, whole entry: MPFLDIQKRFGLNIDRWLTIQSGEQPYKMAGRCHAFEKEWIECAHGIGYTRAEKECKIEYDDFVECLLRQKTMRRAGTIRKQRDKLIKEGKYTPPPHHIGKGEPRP
# YBX1, P67809, UniProt P67809, whole entry: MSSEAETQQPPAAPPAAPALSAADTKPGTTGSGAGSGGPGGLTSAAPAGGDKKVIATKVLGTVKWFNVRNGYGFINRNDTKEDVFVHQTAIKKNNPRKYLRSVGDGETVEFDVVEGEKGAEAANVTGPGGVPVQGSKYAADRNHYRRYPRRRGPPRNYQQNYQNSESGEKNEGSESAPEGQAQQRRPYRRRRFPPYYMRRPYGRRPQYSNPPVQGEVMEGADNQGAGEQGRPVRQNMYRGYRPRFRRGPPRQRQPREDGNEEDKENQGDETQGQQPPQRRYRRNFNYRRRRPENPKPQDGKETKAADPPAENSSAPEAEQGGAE
# YBX3, P16989, UniProt P16989, whole entry: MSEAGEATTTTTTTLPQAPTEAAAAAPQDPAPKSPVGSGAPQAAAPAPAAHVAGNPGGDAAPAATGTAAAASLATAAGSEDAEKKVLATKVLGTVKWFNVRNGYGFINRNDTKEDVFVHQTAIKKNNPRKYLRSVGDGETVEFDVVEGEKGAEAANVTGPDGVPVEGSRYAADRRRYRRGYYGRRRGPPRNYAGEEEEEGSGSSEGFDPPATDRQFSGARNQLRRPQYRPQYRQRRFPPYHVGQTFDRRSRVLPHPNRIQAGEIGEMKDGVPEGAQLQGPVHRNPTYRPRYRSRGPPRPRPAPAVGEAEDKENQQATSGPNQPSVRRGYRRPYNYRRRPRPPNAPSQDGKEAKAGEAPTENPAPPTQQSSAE
# This is one part of the list. Only hits are listed; about a third recur on repeated control peptides.
# Assays:
# Experiment in all cases: PRISMA enrichment of interactor (LFQ) in peptide spot vs all other peptide spots (log2 fold change); higher = stronger / more specific binding of the interactor to the peptide
# [1] = biological target: HMGN2, P05204
# Protocol: (§1)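 PRISMA: 15-aa overlapping tiles (offset 8 aa) of 60 microproteins, plus SOS1/GLUT1 control peptides, were spot-synthesized on cellulose membranes in triplicate. Membranes were incubated with benzonase-treated HEK293T lysate, and bound proteins were identified by LC-MS/MS with LFQ. Enrichment is the log2 fold change of each protein in one spot versus all other spots. Only interactors passing the significance cutoff are listed.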
# [2] = biological target: HNRNPA0, Q13151
# Protocol: as §1
# [3] = biological target: HNRNPA1, P09651
# Protocol: as §1
# [4] = biological target: HNRNPA2B1, P22626
# Protocol: as §1
# [5] = biological target: HNRNPA3, P51991
# Protocol: as §1
# [6] = biological target: HNRNPL, P14866
# Protocol: as §1
# [7] = biological target: ITCH, Q96J02
# Protocol: as §1
# [8] = biological target: JPT2, Q9H910
# Protocol: as §1
# [9] = biological target: KHDRBS1, Q07666
# Protocol: as §1
# [10] = biological target: LAMTOR5, O43504
# Protocol: as §1
# [11] = biological target: LSM14A, Q8ND56
# Protocol: as §1
# [12] = biological target: MORF4L2, Q15014
# Protocol: as §1
# [13] = biological target: MRPL27, Q9P0M9
# Protocol: as §1
# [14] = biological target: NDUFS5, O43920
# Protocol: as §1
# [15] = biological target: NGDN, Q8NEJ9
# Protocol: as §1
# [16] = biological target: NIFK, Q9BYG3
# Protocol: as §1
# [17] = biological target: NOL12, Q9UGY1
# Protocol: as §1
# [18] = biological target: NOL7, Q9UMY1
# Protocol: as §1
# [19] = substrate: NONO, Q15233
# Protocol: as §1
# [20] = biological target: PABPN1, Q86U42
# Protocol: as §1
# [21] = biological target: PCLAF, Q15004
# Protocol: as §1
# [22] = substrate: PCNP, Q8WW12
# Protocol: as §1
# [23] = biological target: PINX1, Q96BK5
# Protocol: as §1
# [24] = biological target: PPP1R14A, Q96A00
# Protocol: as §1
# [25] = biological target: PQBP1, O60828
# Protocol: as §1
# [26] = biological target: PUS1, Q9Y606
# Protocol: as §1
# [27] = biological target: RAVER1, Q8IY67
# Protocol: as §1
# [28] = biological target: RBM3, P98179
# Protocol: as §1
# [29] = biological target: RBM42, Q9BTD8
# Protocol: as §1
# [30] = biological target: SERF2, P84101
# Protocol: as §1
# [31] = biological target: SFPQ, P23246
# Protocol: as §1
# [32] = biological target: SHROOM3, Q8TF72
# Protocol: as §1
# [33] = biological target: SPAG5, Q96R06
# Protocol: as §1
# [34] = biological target: SYNCRIP, O60506
# Protocol: as §1
# [35] = biological target: TMA16, Q96EY4
# Protocol: as §1
# [36] = biological target: TRMT112, Q9UI30
# Protocol: as §1
# [37] = biological target: USP39, Q53GS9
# Protocol: as §1
# [38] = biological target: YBX1, P67809
# Protocol: as §1
# [39] = biological target: YBX3, P16989
# Protocol: as §1
# [40] = biological target: ZMAT2, Q96NC0
# Protocol: as §1
# [41] = biological target: ZNF593, O00488
# Protocol: as §1
# [42] = biological target: hCG_2014768
# Protocol: as §1
binder,measurement,setting,value
FVVAVGAEYYLESLN [NDUFB3],PRISMA enrichment of interactor (log2),[1],5.46
same,PRISMA enrichment of interactor (log2),[2],4.94
same,PRISMA enrichment of interactor (log2),[3],5.6
same,PRISMA enrichment of interactor (log2),[4],4.56
same,PRISMA enrichment of interactor (log2),[5],5.3
same,PRISMA enrichment of interactor (log2),[6],4.81
same,PRISMA enrichment of interactor (log2),[7],4.41
same,PRISMA enrichment of interactor (log2),[8],3.87
same,PRISMA enrichment of interactor (log2),[9],6.94
same,PRISMA enrichment of interactor (log2),[10],3.95
same,PRISMA enrichment of interactor (log2),[11],5.21
same,PRISMA enrichment of interactor (log2),[12],5.29
same,PRISMA enrichment of interactor (log2),[13],6.74
same,PRISMA enrichment of interactor (log2),[14],4.3
same,PRISMA enrichment of interactor (log2),[15],4.31
same,PRISMA enrichment of interactor (log2),[16],4.33
same,PRISMA enrichment of interactor (log2),[17],4.64
same,PRISMA enrichment of interactor (log2),[18],4.65
same,PRISMA enrichment of interactor (log2),[19],5.27
same,PRISMA enrichment of interactor (log2),[20],4.95
same,PRISMA enrichment of interactor (log2),[21],4.78
same,PRISMA enrichment of interactor (log2),[22],3.98
same,PRISMA enrichment of interactor (log2),[23],4.67
same,PRISMA enrichment of interactor (log2),[24],4.72
same,PRISMA enrichment of interactor (log2),[25],4.06
same,PRISMA enrichment of interactor (log2),[26],4.95
same,PRISMA enrichment of interactor (log2),[27],4.22
same,PRISMA enrichment of interactor (log2),[28],4.96
same,PRISMA enrichment of interactor (log2),[29],3.85
same,PRISMA enrichment of interactor (log2),[30],6.27
same,PRISMA enrichment of interactor (log2),[31],5.8
same,PRISMA enrichment of interactor (log2),[32],9.18
same,PRISMA enrichment of interactor (log2),[33],4.41
same,PRISMA enrichment of interactor (log2),[34],5.03
same,PRISMA enrichment of interactor (log2),[35],4.07
same,PRISMA enrichment of interactor (log2),[36],5.04
same,PRISMA enrichment of interactor (log2),[37],4.31
same,PRISMA enrichment of interactor (log2),[38],5.25
same,PRISMA enrichment of interactor (log2),[39],6.52
same,PRISMA enrichment of interactor (log2),[40],4.05
same,PRISMA enrichment of interactor (log2),[41],4.76
same,PRISMA enrichment of interactor (log2),[42],5.75

# Random excerpt: three entries already listed, in no set order.
binder,measurement,setting,value
FVVAVGAEYYLESLN [NDUFB3],PRISMA enrichment of interactor (log2),[27],4.22
same,PRISMA enrichment of interactor (log2),[8],3.87
same,PRISMA enrichment of interactor (log2),[22],3.98
